Experimental findings from patent US20230125500A1, “ANGIOSTATIN NEUTRALIZING PEPTIDES DERIVED FROM ATP SYNTHASE ALPHA SUBUNIT” (The Governors of the University of Alberta, priority 2021, published 2023) are described below.

Sequences of proteins named here, by UniProt entry; tags and fusion partners are left off. Residues count along the entry.
UniProt P00747, residues 99-459: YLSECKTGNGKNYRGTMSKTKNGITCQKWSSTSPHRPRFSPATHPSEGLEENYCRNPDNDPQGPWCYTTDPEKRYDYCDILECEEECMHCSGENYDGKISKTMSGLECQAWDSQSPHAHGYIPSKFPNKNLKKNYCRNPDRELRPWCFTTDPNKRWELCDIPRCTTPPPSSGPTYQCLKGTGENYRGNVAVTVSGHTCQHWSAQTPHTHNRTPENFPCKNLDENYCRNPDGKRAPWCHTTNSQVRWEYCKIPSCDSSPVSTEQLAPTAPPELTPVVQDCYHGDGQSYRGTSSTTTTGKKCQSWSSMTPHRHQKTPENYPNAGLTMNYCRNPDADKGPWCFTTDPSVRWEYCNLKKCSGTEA

In the assay the target is angiostatin K1-4 (UniProt P00747). Nature of the assay: immunoprecipitation of angiostatin K1-4 after incubation with trypsinized subunit alpha.

No constants are given. Whether binding was seen depends on the method and setting. Some results given as binding are weak or reduced against the parent protein; the word gives no strength.

For the molecule TGTAEMSSILEER [Alpha peptide 1], the binding entry was “binds”.

In the case of TSIAIDTIINQK [Alpha peptide 2], the binding entry is reported as “binds”.

For AVDSLVPIGR [Alpha peptide 3], the binding result is on record as “binds”.
